# ± gives the standard deviation of the averaged measurements. The list shows a part of the results. Repeats are few or missing, and single values can be far off.
# System: RAW 264.7 macrophages infected with S. aureus JE2-lux
# Assay: host macrophage viability (CellTiter-Fluor) relative to DMSO vehicle; higher = more viable host cells
# Conditions: 10 µM; treatment time 4 h; gentamicin 50 µg/ml
row,Compound,host macrophage viability [%]
1,O=c1/c(=C/c2ccc(Br)cc2)sc2nc(-c3ccncc3)nn12,108
2,CCc1nnsc1C(=O)Nc1ccc(S(=O)(=O)N2CCOCC2)cc1,99.9
3,O=C1NC(=O)c2cc(NC(=O)c3cc(Cl)sc3Cl)ccc21,105
4,NC(=O)c1c(Nc2nc3ccc(F)cc3s2)sc2c1CCCC2,146 ± 11
5,O=C(CC1SC(=O)N(c2ccccc2)C1=O)Nc1ccccc1 (stereo unspecified),110
6,CCCN1C(=O)C(C)(C)COc2ccc(NS(=O)(=O)c3ccc4c(c3)CCCC4)cc21,119
7,COc1cccc(/C=N/c2cccc3c(=O)[nH][nH]c(=O)c23)c1O,129
8,Cn1c(SCC(=O)N2CCCC2)nc2c(-c3ccccc3)csc2c1=O,112
9,O=C(CN(Cc1ccc(Cl)cc1)C(=O)c1cccnc1)N1CCNCC1,124
10,COCCN(Cc1cc2cc3c(cc2nc1Cl)OCO3)C(=O)NCc1ccccc1,105
11,N#C/C(C(=O)NCc1ccco1)=C1/SC=C(c2ccccc2)N1c1ccccc1,106
12,O=C(NC(c1ccccc1)c1ccccc1)c1cnc2n(c1=O)CCS2,120
13,Cc1c(Cl)ccc2sc(N(Cc3ccccn3)C(=O)c3ccc(S(C)(=O)=O)cc3)nc12,120
14,Cc1ccnc(N2CCC(C(=O)NC3CCCCCC3)CC2)n1,130
15,O=C(COc1ccc(Cl)cc1)N1CCN=C1SCc1ccccc1F,109 ± 6.3
16,O=C1CN(C(=O)c2ccccc2Br)C(c2ccccc2)c2cc(F)ccc2N1 (stereo unspecified),105
17,CC1=C(C(=O)Nc2ccc(C)cc2)C(c2ccc(N(C)C)cc2)NC(=O)N1 (stereo unspecified),96.9
18,Cc1cc(NC(=O)CSc2nc(=O)n(CCO)c3c2CCCC3)no1,107
19,O=C(Nc1cccc2ccccc12)c1cnc2sccn2c1=O,122 ± 5.4
20,CC(C)COc1ccc(S(=O)(=O)Nc2ccc3c(c2)C(=O)Nc2ccccc2O3)cc1,105
21,Cc1ccn2c(=O)nc(SCC(=O)N3CCC(C)CC3)nc2c1,120
22,Cc1ccc(CNc2nccn(-c3ccc(C)cc3C)c2=O)cc1,122

# Quoted at random: two records from the list, in no set order.
row,Compound,host macrophage viability [%]
10,COCCN(Cc1cc2cc3c(cc2nc1Cl)OCO3)C(=O)NCc1ccccc1,105
3,O=C1NC(=O)c2cc(NC(=O)c3cc(Cl)sc3Cl)ccc21,105

# Additional entries follow.

row,Compound,host macrophage viability [%]
1,CC1(C)c2sc(=O)[nH]c2SC2C(=O)N(CC(=O)O)C(=O)C21 (stereo unspecified),122
2,Cc1ccnc(NC(=O)Nc2c[nH]c3ccccc23)c1,116
3,COCCOC(=O)c1c(C)oc2ccc(OCC(=O)c3ccc(OC)cc3)cc12,118
4,Cc1c(Cl)cccc1NC(=O)Cn1c(=O)n(Cc2ccccc2)c(=O)c2sc3ccccc3c21,116
5,O=c1oc2ccccc2n1CCCOc1ccccc1,106
6,Cc1cc2cc(C#N)c(SCC(=O)N3CCc4ccccc43)nc2cc1C,117
7,CC12CC(NC(=O)N1c1ccc3c(c1)OCCO3)c1ccccc1O2 (stereo unspecified),134
8,COc1ccc(Cl)cc1NC(=O)CSc1ccc2nnc(-c3ccncc3)n2n1,122
9,O=C1/C(=C/c2nc3ccccc3[nH]2)SC(=S)N1Nc1ccccc1,105
10,Cc1nnc(SCC(=O)NCc2ccccc2Cl)[nH]c1=O,113
11,Cc1ccc(-c2csc(NC(=O)c3ccc(N4C(=O)CCC4=O)cc3)n2)o1,111 ± 4.8
12,CC(=O)Nc1ccc(NC(=O)CSc2ccc(-c3ccc(Cl)cc3)nn2)cc1,110
13,CC1(C)Cc2nc3sc4c(=O)n(CC(=O)NCC5CCCO5)cnc4c3cc2CO1 (stereo unspecified),120
14,CCCn1nc(C)cc1NC(=O)c1ncoc1-c1ccc(F)cc1,128
15,N#Cc1cc2cc3c(cc2nc1SCC(=O)N1CCCc2ccccc21)OCO3,131
16,Cc1ccc(-c2csc(-c3cccn3CC(=O)NC3CCCCCCC3)n2)cc1,92
17,O=C(O)c1ccc(Oc2nccnc2N2CCCCC2)cc1,121
18,CCC(=O)NNc1nc2c(Cl)cccc2s1,126 ± 14
19,CSc1cccc2sc(NCc3ccccc3)nc12,115
20,CCS(=O)(=O)c1ccccc1C(=O)/N=c1/sc2cc([N+](=O)[O-])ccc2n1C,124
21,CCOC(=O)C1=C(C)NC(O)=NC1c1ccc([N+](=O)[O-])cc1 (stereo unspecified),125
22,O=C(O)CC1S/C(=N\N=C/c2ccccc2)N(c2ccc(O)cc2)C1=O (stereo unspecified),107

# 4 entries already listed, ordered by SMILES length, smallest number first:
row,Compound,host macrophage viability [%]
18,Cc1cc(NC(=O)CSc2nc(=O)n(CCO)c3c2CCCC3)no1,107
7,COc1cccc(/C=N/c2cccc3c(=O)[nH][nH]c(=O)c23)c1O,129
12,CC(=O)Nc1ccc(NC(=O)CSc2ccc(-c3ccc(Cl)cc3)nn2)cc1,110
6,CCCN1C(=O)C(C)(C)COc2ccc(NS(=O)(=O)c3ccc4c(c3)CCCC4)cc21,119

# Two of these compounds in a different format.
row | Compound | host macrophage viability [%]
3 | COCCOC(=O)c1c(C)oc2ccc(OCC(=O)c3ccc(OC)cc3)cc12 | 118
4 | Cc1c(Cl)cccc1NC(=O)Cn1c(=O)n(Cc2ccccc2)c(=O)c2sc3ccccc3c21 | 116

# (next part)

row,Compound,host macrophage viability [%]
1,CC(C)Cn1c(N2CCCC2)nc2c1c(=O)[nH]c(=O)n2C,106 ± 1.4
2,CCc1cc(Sc2ccc(N)cc2)n2ncnc2n1,117
3,COc1ccc(C(=O)NCc2cccnc2)cc1S(=O)(=O)N1CCOCC1,114
4,c1csc(CSc2nnc3sc4ccccc4n23)c1,107
5,O=C(CCN1C(=O)c2ccccc2S1(=O)=O)Nc1ncc([N+](=O)[O-])s1,88.6
6,CCOC(=O)c1sc(-c2ccccc2)cc1NC(=O)CCS(=O)(=O)c1ccccc1,114
7,O=C(Cc1csc2nc(-c3ccc(F)cc3)cn12)Nc1ccc(F)c(F)c1,114
8,Cc1cc(NCc2ccccc2Cl)n2nc(Cc3cccc(F)c3)nc2n1,131
9,CCOC(=O)c1ccc(NC(=O)CSc2nncn2-n2cccc2)cc1,114
10,Cc1nnsc1C(=O)Nc1ccccc1C(F)(F)F,117
11,CCN1CCN(CC(=O)Nc2ccc(C)cc2C)C(=O)C1=O,100
12,Cc1ccc2nc(SC(C)c3ccccc3)nc(=O)n2c1 (stereo unspecified),126
13,Cc1cc(NC(=O)CSc2nc3sc4c(c3c(=O)[nH]2)CCC(C(C)(C)C)C4)no1 (stereo unspecified),87.7
14,Cc1nc2c(cc1NC(=O)Nc1ccccc1Cl)nc(C)n2Cc1ccccc1,122
15,CCC(C)NC(=O)C(C)C1CCN(C(=O)c2cc3ccccc3[nH]2)CC1 (stereo unspecified),104
16,Cn1c(=O)[nH]c(=O)c2c1nc(CN1CCN(c3cccc(Cl)c3)CC1)n2Cc1cccc(Cl)c1,118
17,CCc1cccc(NC(=O)Cn2cnc3sc(-c4nc(-c5ccncc5)no4)c(C)c3c2=O)c1,91.6
18,O=C(NC1CCCCC1)N1CCC(n2cnc3cccnc32)CC1,101
19,COc1cc(Nc2c(C)c(C)nc3nc(Cc4cccc(F)c4)nn23)cc(OC)c1,127
20,Cc1ccc(CNc2ncccc2-c2nc(-c3ccccc3C)no2)cc1,103
21,COc1cc(Cl)ccc1Oc1ncnc2oc(C)c(C)c12,121
22,COc1cc(CNC(=O)CCn2c(-c3ccccn3)cc3cccnc32)cc(OC)c1,108

row,Compound,host macrophage viability [%]
1,CN(C)C(CNS(=O)(=O)c1ccc2c(c1)NC(=O)CO2)c1ccc2c(c1)OCO2 (stereo unspecified),102
2,COC(=O)c1ccc(CSc2nc3sc(C(=O)O)c(C)c3c(=O)[nH]2)cc1,114
3,Fc1cccc2sc(Nc3nc(-c4nc5ccccc5s4)cs3)nc12,113 ± 17
4,O=C(Cn1ncn2nc3c(c2c1=O)CCCC3)Nc1ccc2c(c1)OCCO2,130
5,CCc1ccc2c(c1)C(O)(c1c(C)[nH]c3ccccc13)C(=O)N2 (stereo unspecified),92.2
6,COc1ccc2c(C)cc(SCC(=O)Nc3ccc4c(c3)OCO4)nc2c1,130
7,Cc1ccc(CN(CC(=O)N2CCNCC2)C(=O)c2cccnc2)cc1C,114
8,Cc1cc2oc(C(=O)N(C)Cc3nc4cc(Cl)ccc4[nH]3)cc(=O)c2cc1C,108
9,COc1ccc(NC(=O)c2cc(-c3ccc4c(c3)OCCO4)on2)c(OC)c1,121
10,COC(=O)c1sccc1S(=O)(=O)Nc1ccc(F)cc1Cl,116
11,CCc1nc2onc(C)c2c(=O)n1CC(=O)OC,111
12,COc1ccc(S(=O)(=O)NC(=N)NCCc2c(C)[nH]c3ccc(F)cc23)cc1C,132
13,COc1ccc(CCNc2nc(C)nc3sc4c(c23)CCCC4)cc1OC,117
14,Cc1sc(NC(=O)c2cccnc2)nc1-c1ccc2c(c1)CCN2C(=O)C(C)C,106
15,O=C(Nc1ccc2c(c1)CCC2)C1CCCN(C(=O)Nc2ccc(F)cc2)C1 (stereo unspecified),115
16,Cc1cccc(-n2ccnc2SCC(=O)Nc2ccc3c(c2)OCCO3)c1C,122
17,O=C(CN1C(=O)CSC1=O)c1ccc(NC(=O)c2ccccc2)cc1,132
18,CCSc1nsc(NC(=O)Nc2cccc(C(C)=O)c2)n1,116
19,O=C(CC1Sc2ccc(C(F)(F)F)cc2NC1=O)NC1CCCCC1 (stereo unspecified),115
20,O=C(CSc1nc2ccccc2c(=O)[nH]1)Nc1ccc2c(c1)OCCO2,92.2
21,CC(C)c1ccc2nc3sc(C(=O)N4CCOCC4)c(N)c3cc2c1,138
22,COc1ccc(C(NC(=O)c2cnc(SC)nc2)c2ccncc2)cc1 (stereo unspecified),111

row,Compound,host macrophage viability [%]
1,CN(C(=O)Cc1ccsc1)c1nc2c(s1)CCc1c-2cnn1C,107
2,Cc1ccc(S(=O)(=O)NC(C)C(=O)Nc2n[nH]c(Cc3ccccc3)n2)cc1 (stereo unspecified),120
3,CCN(CC)CCNC(=O)c1cnc2c(c(C)nn2-c2ccccc2)c1NCc1ccc(OC)cc1,96.1
4,Cc1ccc(S(=O)(=O)c2c(C(=O)N3CCCCC3)cnc3ccc(Cl)cc23)c(C)c1,123
5,Cc1cc(C)cc(N2CC(C)Cn3c2nc2c3c(=O)n(CC(=O)O)c(=O)n2C)c1 (stereo unspecified),126
6,COC(=O)c1ccc(NC(=O)CSc2nnc(Cc3ccc(C)cc3)c(=O)n2N)cc1,114
7,Cc1c(NS(=O)(=O)c2ccc3c4c(cccc24)C(=O)N3)c(=O)n(-c2ccccc2)n1C,99.9 ± 8.6
8,O=C1Nc2ccc(F)cc2/C1=C1/SC(=S)N(CCS(=O)(=O)O)C1=O,106
9,O=c1c2scc(-c3ccc(F)cc3)c2ncn1Cc1ccccn1,84.4
10,Cc1cccn2cc(CCNS(=O)(=O)c3cccc([N+](=O)[O-])c3)nc12,118
11,O=C(CCN1CCOCC1)N1N=C(c2ccc(Cl)cc2)CC1c1ccco1 (stereo unspecified),107
12,O=C(COc1ccc(Br)cc1)N/N=C/c1ccccc1,134
13,CCOc1cc(/C=C2/SC(=S)N(NC(=O)c3ccccc3OC)C2=O)ccc1O,95.7
14,CC(C)(C)c1nc2ccccc2c2nn(CC(=O)N3CCNC(=O)C3(C)C)c(=O)n12,114
15,CC(=O)N1N=C(c2ccccc2)CC1c1ccc2nccnc2c1 (stereo unspecified),106
16,O=C(CCCS(=O)(=O)c1ccc(F)cc1)Nc1ncnc2sccc12,109
17,COc1cc(/C=C2/SC(=S)N(Nc3ccc([N+](=O)[O-])cc3[N+](=O)[O-])C2=O)ccc1O,93.5
18,O=C(Cc1ccc(-c2ccccc2)cc1)Nc1ccc2c(c1)CCC(=O)N2,118
